Test results taken from PMC10998217.
These are yes or no findings as the source states them, for the method shown. In cells and extracts the contact can be indirect. Some results given as binding are weak or reduced against the parent protein; the word gives no strength. For some assays here: Tags and fused reporters may be left off the sequences shown.

Chains of the proteins cited; added tags and fusions are not shown.
UniProt Q9Y5T5: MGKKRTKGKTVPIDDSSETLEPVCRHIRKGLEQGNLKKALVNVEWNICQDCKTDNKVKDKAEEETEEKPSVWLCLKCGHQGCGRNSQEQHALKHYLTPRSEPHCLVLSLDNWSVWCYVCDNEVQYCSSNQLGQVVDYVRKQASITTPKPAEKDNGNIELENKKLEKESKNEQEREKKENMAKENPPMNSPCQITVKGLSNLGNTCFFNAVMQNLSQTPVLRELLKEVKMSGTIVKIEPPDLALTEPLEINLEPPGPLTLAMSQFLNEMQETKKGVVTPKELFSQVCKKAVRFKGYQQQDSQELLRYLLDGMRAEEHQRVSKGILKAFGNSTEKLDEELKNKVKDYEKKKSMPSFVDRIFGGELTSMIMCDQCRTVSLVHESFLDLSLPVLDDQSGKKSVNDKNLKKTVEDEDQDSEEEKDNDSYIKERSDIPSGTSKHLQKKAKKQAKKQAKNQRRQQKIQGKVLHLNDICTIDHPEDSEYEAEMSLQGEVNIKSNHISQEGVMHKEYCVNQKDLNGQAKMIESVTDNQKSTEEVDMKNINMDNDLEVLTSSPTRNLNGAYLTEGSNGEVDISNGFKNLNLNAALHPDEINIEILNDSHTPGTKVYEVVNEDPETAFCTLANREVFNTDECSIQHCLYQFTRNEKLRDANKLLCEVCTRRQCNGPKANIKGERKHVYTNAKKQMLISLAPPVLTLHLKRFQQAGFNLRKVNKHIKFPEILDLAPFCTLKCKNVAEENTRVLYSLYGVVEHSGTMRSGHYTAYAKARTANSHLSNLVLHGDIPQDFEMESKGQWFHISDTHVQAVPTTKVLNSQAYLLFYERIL

Assays:
[1] = target: Flag-USP16 (ubiquitin-specific peptidase 16) (UniProt Q9Y5T5); assay: co-IP; HeLa cells cotransfected with Myc-OGT and Flag-USP16; lysates immunoprecipitated with anti-Flag antibody, blotted with anti-Myc
[2] = target: USP16, endogenous (ubiquitin-specific peptidase 16) (human (endogenous in HeLa)) (UniProt Q9Y5T5); assay: co-IP; endogenous proteins; HeLa cells untreated (asynchronous) or synchronized to M phase by nocodazole; lysates immunoprecipitated with anti-USP16 antibodies, immunoblotted with anti-OGT

Row | Binder | binding [1] | binding [2]
1 | Myc-OGT (O-GlcNAc transferase) (enzyme, UniProt O15294 1-1046) MASSVGNVADSTEPTKRMLSFQGLAELAHREYQAGDFEAAERHCMQLWRQEPDNTGVLLLLSSIHFQCRRLDRSAHFSTLAIKQNPLLAEAYSNLGNVYKERGQLQEAIEHYRHALRLKPDFIDGYINLAAALVAAGDMEGAVQAYVSALQYNPDLYCVRSDLGNLLKALGRLEEAKACYLKAIETQPNFAVAWSNLGCVFNAQGEIWLAIHHFEKAVTLDPNFLDAYINLGNVLKEARIFDRAVAAYLRALSLSPNHAVVHGNLACVYYEQGLIDLAIDTYRRAIELQPHFPDAYCNLANALKEKGSVAEAEDCYNTALRLCPTHADSLNNLANIKREQGNIEEAVRLYRKALEVFPEFAAAHSNLASVLQQQGKLQEALMHYKEAIRISPTFADAYSNMGNTLKEMQDVQGALQCYTRAIQINPAFADAHSNLASIHKDSGNIPEAIASYRTALKLKPDFPDAYCNLAHCLQIVCDWTDYDERMKKLVSIVADQLEKNRLPSVHPHHSMLYPLSHGFRKAIAERHGNLCLDKINVLHKPPYEHPKDLKLSDGRLRVGYVSSDFGNHPTSHLMQSIPGMHNPDKFEVFCYALSPDDGTNFRVKVMAEANHFIDLSQIPCNGKAADRIHQDGIHILVNMNGYTKGARNELFALRPAPIQAMWLGYPGTSGALFMDYIITDQETSPAEVAEQYSEKLAYMPHTFFIGDHANMFPHLKKKAVIDFKSNGHIYDNRIVLNGIDLKAFLDSLPDVKIVKMKCPDGGDNADSSNTALNMPVIPMNTIAEAVIEMINRGQIQITINGFSISNGLATTQINNKAATGEEVPRTIIVTTRSQYGLPEDAIVYCNFNQLYKIDPSTLQMWANILKRVPNSVLWLLRFPAVGEPNIQQYAQNMGLPQNRIIFSPVAPKEEHVRRGQLADVCLDTPLCNGHTTGMDVLWAGTPMVTMPGETLASRVAASQLTCLGCLELIAKNRQEYEDIAVKLGTDLEYLKKVRGKVWKQRISSPLFNTKQYTMELERLYLQMWEHYAAGNKPDHMIKPVEVTESA | binds | –
2 | OGT, endogenous (O-GlcNAc transferase) (enzyme, UniProt O15294 1-1046) MASSVGNVADSTEPTKRMLSFQGLAELAHREYQAGDFEAAERHCMQLWRQEPDNTGVLLLLSSIHFQCRRLDRSAHFSTLAIKQNPLLAEAYSNLGNVYKERGQLQEAIEHYRHALRLKPDFIDGYINLAAALVAAGDMEGAVQAYVSALQYNPDLYCVRSDLGNLLKALGRLEEAKACYLKAIETQPNFAVAWSNLGCVFNAQGEIWLAIHHFEKAVTLDPNFLDAYINLGNVLKEARIFDRAVAAYLRALSLSPNHAVVHGNLACVYYEQGLIDLAIDTYRRAIELQPHFPDAYCNLANALKEKGSVAEAEDCYNTALRLCPTHADSLNNLANIKREQGNIEEAVRLYRKALEVFPEFAAAHSNLASVLQQQGKLQEALMHYKEAIRISPTFADAYSNMGNTLKEMQDVQGALQCYTRAIQINPAFADAHSNLASIHKDSGNIPEAIASYRTALKLKPDFPDAYCNLAHCLQIVCDWTDYDERMKKLVSIVADQLEKNRLPSVHPHHSMLYPLSHGFRKAIAERHGNLCLDKINVLHKPPYEHPKDLKLSDGRLRVGYVSSDFGNHPTSHLMQSIPGMHNPDKFEVFCYALSPDDGTNFRVKVMAEANHFIDLSQIPCNGKAADRIHQDGIHILVNMNGYTKGARNELFALRPAPIQAMWLGYPGTSGALFMDYIITDQETSPAEVAEQYSEKLAYMPHTFFIGDHANMFPHLKKKAVIDFKSNGHIYDNRIVLNGIDLKAFLDSLPDVKIVKMKCPDGGDNADSSNTALNMPVIPMNTIAEAVIEMINRGQIQITINGFSISNGLATTQINNKAATGEEVPRTIIVTTRSQYGLPEDAIVYCNFNQLYKIDPSTLQMWANILKRVPNSVLWLLRFPAVGEPNIQQYAQNMGLPQNRIIFSPVAPKEEHVRRGQLADVCLDTPLCNGHTTGMDVLWAGTPMVTMPGETLASRVAASQLTCLGCLELIAKNRQEYEDIAVKLGTDLEYLKKVRGKVWKQRISSPLFNTKQYTMELERLYLQMWEHYAAGNKPDHMIKPVEVTESA | – | binds
